Measured values published in article doi:10.1101/211250 (bioRxiv, 2017).
Results are given in words; binding and its absence hold for the method and conditions named. For some of these results: In cells and extracts the contact can be indirect. Some entries that bind do so weakly or less than the wild type. Non-standard residues stand in square brackets, D forms with d. No end group written: not given here. pS = N[C@@H](COP(=O)(O)O)C(=O)O

The chains behind the UniProt entries cited, without tags or fusion partners. Where a name states a change or a piece, a line headed by the entry shows the natural chain unless it says otherwise. Residues count along the entry.
UniProt Q14160: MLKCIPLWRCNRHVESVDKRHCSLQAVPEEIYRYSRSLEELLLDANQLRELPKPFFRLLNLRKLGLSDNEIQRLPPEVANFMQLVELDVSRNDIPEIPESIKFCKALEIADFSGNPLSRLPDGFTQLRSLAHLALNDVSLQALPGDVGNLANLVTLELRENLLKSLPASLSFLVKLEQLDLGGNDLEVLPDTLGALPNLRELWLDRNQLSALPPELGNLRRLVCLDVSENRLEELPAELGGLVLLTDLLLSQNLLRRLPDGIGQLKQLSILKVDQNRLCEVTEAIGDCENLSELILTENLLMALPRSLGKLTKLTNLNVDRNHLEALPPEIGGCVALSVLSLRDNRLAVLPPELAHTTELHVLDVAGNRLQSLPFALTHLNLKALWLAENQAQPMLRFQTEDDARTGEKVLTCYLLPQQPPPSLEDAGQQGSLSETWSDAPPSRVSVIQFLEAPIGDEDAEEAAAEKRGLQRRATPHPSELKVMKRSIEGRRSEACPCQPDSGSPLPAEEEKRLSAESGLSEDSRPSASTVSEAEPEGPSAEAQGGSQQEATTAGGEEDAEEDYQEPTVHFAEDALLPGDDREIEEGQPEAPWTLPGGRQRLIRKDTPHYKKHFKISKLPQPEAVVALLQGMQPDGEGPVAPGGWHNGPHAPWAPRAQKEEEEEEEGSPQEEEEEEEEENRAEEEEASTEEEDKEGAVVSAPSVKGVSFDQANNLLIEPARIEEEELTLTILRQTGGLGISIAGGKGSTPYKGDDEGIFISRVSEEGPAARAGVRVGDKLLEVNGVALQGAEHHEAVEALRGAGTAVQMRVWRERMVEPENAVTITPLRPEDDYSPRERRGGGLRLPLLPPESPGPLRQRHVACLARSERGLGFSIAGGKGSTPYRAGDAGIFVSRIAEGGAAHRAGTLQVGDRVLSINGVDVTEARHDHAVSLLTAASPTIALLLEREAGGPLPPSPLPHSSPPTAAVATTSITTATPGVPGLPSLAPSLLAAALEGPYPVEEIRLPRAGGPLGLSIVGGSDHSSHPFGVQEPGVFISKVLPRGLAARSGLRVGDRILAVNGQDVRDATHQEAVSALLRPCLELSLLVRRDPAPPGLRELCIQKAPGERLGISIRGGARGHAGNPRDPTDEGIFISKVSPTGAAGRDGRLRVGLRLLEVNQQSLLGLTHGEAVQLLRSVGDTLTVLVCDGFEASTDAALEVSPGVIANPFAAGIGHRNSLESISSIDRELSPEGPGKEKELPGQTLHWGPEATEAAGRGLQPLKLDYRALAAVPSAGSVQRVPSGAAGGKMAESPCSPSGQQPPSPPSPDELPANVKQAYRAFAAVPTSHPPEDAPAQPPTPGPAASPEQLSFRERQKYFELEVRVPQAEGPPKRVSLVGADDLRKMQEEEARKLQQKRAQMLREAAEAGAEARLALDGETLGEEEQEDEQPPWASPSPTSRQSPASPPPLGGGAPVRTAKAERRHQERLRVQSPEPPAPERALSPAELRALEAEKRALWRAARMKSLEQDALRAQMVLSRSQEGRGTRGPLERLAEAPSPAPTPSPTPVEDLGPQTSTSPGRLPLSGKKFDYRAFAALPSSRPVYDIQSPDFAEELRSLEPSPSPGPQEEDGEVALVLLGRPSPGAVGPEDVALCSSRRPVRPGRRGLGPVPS
Scribble PDZ1: residues 719-829 of Q14160
UniProt Q15349: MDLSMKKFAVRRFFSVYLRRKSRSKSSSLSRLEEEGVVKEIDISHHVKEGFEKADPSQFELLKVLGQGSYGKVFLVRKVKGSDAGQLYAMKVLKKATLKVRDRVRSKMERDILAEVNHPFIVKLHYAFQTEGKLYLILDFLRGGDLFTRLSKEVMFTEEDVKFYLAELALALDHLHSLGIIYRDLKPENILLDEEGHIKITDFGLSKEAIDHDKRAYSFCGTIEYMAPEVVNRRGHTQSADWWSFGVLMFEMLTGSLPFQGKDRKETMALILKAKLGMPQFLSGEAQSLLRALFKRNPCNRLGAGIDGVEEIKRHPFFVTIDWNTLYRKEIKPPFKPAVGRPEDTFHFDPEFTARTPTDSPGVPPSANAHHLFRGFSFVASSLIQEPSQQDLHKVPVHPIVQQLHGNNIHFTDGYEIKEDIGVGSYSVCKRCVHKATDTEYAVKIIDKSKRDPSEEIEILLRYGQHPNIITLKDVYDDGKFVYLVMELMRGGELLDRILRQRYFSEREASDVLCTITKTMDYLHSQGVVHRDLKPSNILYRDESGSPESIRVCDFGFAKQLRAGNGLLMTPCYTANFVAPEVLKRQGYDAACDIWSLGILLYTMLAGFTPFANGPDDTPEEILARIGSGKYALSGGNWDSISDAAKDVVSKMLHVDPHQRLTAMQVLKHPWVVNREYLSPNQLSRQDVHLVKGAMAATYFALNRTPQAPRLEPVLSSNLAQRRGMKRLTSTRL

T1: FITC-labeled unphosphorylated MCC peptide (HTNETSL-coo-) (human)
T1 sequence (peptide, FITC label, position not stated): HTNETSL

T2: FITC-labeled unphosphorylated RPS6KA2 peptide (RLTSTRL-coo-) (human)
T2 sequence (peptide, FITC label, position not stated): RLTSTRL

B1: Shank1 PDZ (domain or fragment)
chain: TVLLQKKDSEGFGFVLRGAKAQTPIEEFTPTPAFPALQYLESVDEGGVAWRAGLRMGDFLIEVNGQNVVKVGHRQVVNMIRQGGNTLMVKVVMVT

What was measured:
[1] = molecular target: GFP-tagged full-length Scribble (human) (UniProt Q14160); assay: co-IP
[2] = molecular target: T1, FITC-labeled unphosphorylated MCC peptide (HTNETSL-coo-) (human); assay: MST
[3] = molecular target: T2, FITC-labeled unphosphorylated RPS6KA2 peptide (RLTSTRL-coo-) (human); assay: MST
Scribble PDZ1 (human) = Scribble PDZ1 (human) (UniProt Q14160); assay: phage display selection

| Molecule | binding [1] | other results |
| --- | --- | --- |
| Flag-tagged full-length RPS6KA2 wild-type (from UniProt Q15349 1-733) | no binding | – |
| Flag-tagged RPS6KA2Δ (the three last amino acids truncated) (from UniProt Q15349 1-730) (domain or fragment) | no binding | – |
| Flag-tagged full-length RPS6KA2 S730A (from UniProt Q15349 1-733) | no binding | – |
| Flag-tagged full-length RPS6KA2 S730E (from UniProt Q15349 1-733) | binds | – |
| B1 | – | binding [2]: binds; binding [3]: binds |
| KRSFIESNV [wild-type TANC1 peptide (…-coo-) displayed on phage] | – | binding (Scribble PDZ1 (human)): binds |
